Paper PMC9228535, “Antistaphylococcal Activities and ADME-Related Properties of Chlorinated Arylcarbamoylnaphthalenylcarbamates” (Pharmaceuticals, 2022)

Test system: THP-1 cells
Assay: In vitro cytotoxicity assay (WST-1)
Format: cell-based, human
Details: IC50 THP-1 / MIC S. aureus ATCC 29213
Description: Preliminary in vitro cytotoxicity screening of the investigated compounds was performed using human monocytic leukemia THP-1 cells, see Table 2. The ability to inhibit the human cancer cell viability (IC50) of the compounds was compared to camptothecin toxicity (0.16 ± 0.07 μM). […] However, these values are up to two orders of magnitude higher than their significant antistaphyloccocal concentrations. This fact is also taken into account in the calculated selectivity index (SI), Table 2, where for only three compounds the SI is <20, while for the rest of the agents SI is >20, and for some derivatives even 100 and more. Thus, based on all these observations, it can be concluded that all the tested derivatives can be considered as in vitro non-toxic compounds for the subsequent design of new therapeutic agents.
The human THP-1 cell line (European Collection of Cell Cultures, Salisbury, UK) was cultured in RPMI 1640 medium supplemented with 10% fetal bovine serum, 2% L-glutamine, 1% penicillin, and streptomycin at 37 °C with 5% CO2. Cells were passaged at approximately 1-week intervals. All the tested compounds were prepared and dissolved as mentioned in our previous work.

| Structure (SMILES) | SI (IC50/MIC) |
| --- | --- |
| CCNC(=O)Oc1c(C(=O)Nc2cc(Cl)c(Cl)cc2Cl)ccc2ccccc12 [Compound 2, 2-[N-(2,4,5-Trichlorophenyl)carbamoyl]naphthalen-1-yl ethyl carbamate] | 156 |
| CCCNC(=O)Oc1c(C(=O)Nc2cc(Cl)c(Cl)cc2Cl)ccc2ccccc12 [Compound 3, 2-[N-(2,4,5-Trichlorophenyl)carbamoyl]naphthalen-1-yl propyl carbamate] | 88.1 |
| CCCCNC(=O)Oc1c(C(=O)Nc2cc(Cl)c(Cl)cc2Cl)ccc2ccccc12 [Compound 4, 2-[N-(2,4,5-Trichlorophenyl)carbamoyl]naphthalen-1-yl butyl carbamate] | 99.6 |
| CCCCCNC(=O)Oc1c(C(=O)Nc2cc(Cl)c(Cl)cc2Cl)ccc2ccccc12 [Compound 5, 2-[N-(2,4,5-Trichlorophenyl)carbamoyl]naphthalen-1-yl pentyl carbamate] | 51.3 |
| CCCCCCNC(=O)Oc1c(C(=O)Nc2cc(Cl)c(Cl)cc2Cl)ccc2ccccc12 [Compound 6, 2-[N-(2,4,5-Trichlorophenyl)carbamoyl]naphthalen-1-yl hexyl carbamate] | 25.1 |
| CCCCCCCNC(=O)Oc1c(C(=O)Nc2cc(Cl)c(Cl)cc2Cl)ccc2ccccc12 [Compound 7, 2-[N-(2,4,5-Trichlorophenyl)carbamoyl]naphthalen-1-yl heptyl carbamate] | 25.7 |
| CCCCCCCCNC(=O)Oc1c(C(=O)Nc2cc(Cl)c(Cl)cc2Cl)ccc2ccccc12 [Compound 8, 2-[N-(2,4,5-Trichlorophenyl)carbamoyl]naphthalen-1-yl octyl carbamate] | 5.5 |
| CC(C)NC(=O)Oc1c(C(=O)Nc2cc(Cl)c(Cl)cc2Cl)ccc2ccccc12 [Compound 9, 2-[N-(2,4,5-Trichlorophenyl)carbamoyl]naphthalen-1-yl isopropyl carbamate] | 184 |
| O=C(NC1CCCC1)Oc1c(C(=O)Nc2cc(Cl)c(Cl)cc2Cl)ccc2ccccc12 [Compound 10, 2-[N-(2,4,5-Trichlorophenyl)carbamoyl]naphthalen-1-yl cyclopentyl carbamate] | 12.3 |
| O=C(NC1CCCCC1)Oc1c(C(=O)Nc2cc(Cl)c(Cl)cc2Cl)ccc2ccccc12 [Compound 11, 2-[N-(2,4,5-Trichlorophenyl)carbamoyl]naphthalen-1-yl cyclohexyl carbamate] | 21.5 |
| O=C(NC1CCCCCC1)Oc1c(C(=O)Nc2cc(Cl)c(Cl)cc2Cl)ccc2ccccc12 [Compound 12, 2-[N-(2,4,5-Trichlorophenyl)carbamoyl]naphthalen-1-yl cycloheptyl carbamate] | 6.6 |
| O=C(NCCc1ccccc1)Oc1c(C(=O)Nc2cc(Cl)c(Cl)cc2Cl)ccc2ccccc12 [Compound 13, 2-[N-(2,4,5-Trichlorophenyl)carbamoyl]naphthalen-1-yl 2-phenylethyl carbamate] | 44.8 |
| O=C(NCCCCc1ccccc1)Oc1c(C(=O)Nc2cc(Cl)c(Cl)cc2Cl)ccc2ccccc12 [Compound 14, 2-[N-(2,4,5-Trichlorophenyl)carbamoyl]naphthalen-1-yl 4-phenylbutyl carbamate] | 23.5 |
